Library screen at single concentrations

A: 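Cell assay of Leishmania donovani living inside macrophages; the read-out is not stated. Compounds at 30 µM. Direction is inferred from retests: higher values go with stronger inhibition. Size under these conditions: about 69,000 compounds, about 1,000 of them at 50% or above in at least one test.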
B: 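Assay of Toxoplasma gondii numbers, read through their beta-galactosidase reporter with a colour substrate. Concentration: 10 µM. The record gives no direction; the compounds picked for IC50 retests had high values, so higher reads as fewer parasites. Of about 67,000 compounds tested this way, about 260 (0.38%) reached 50% or more in at least one test.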

Results are given as percent effect. The controls that fix the scale are not given in the record; negative values are as filed. Compounds were drawn at random from those tested, without regard to their results. Two or more numbers in one place are separate tests of the same structure; such repeats can differ widely. A dash means the value is not listed here; it may have been measured.

SMILES,A,B
CSCc1noc(-c2ccc(C)c(N3CCNC3=O)c2)n1,12.14,-8.846
COCC(=O)Nc1cnc(N2CCOCC2)nc1,22.96,-2.839
COc1ccc(CNC(=O)NCCc2nc(C)c(C)s2)cn1,17.17,3.294
Cc1nn(C)c(N(C)C)c1CNCCCNS(C)(=O)=O,-12.57,-3.365
Cc1ccc(CC(=O)N2CCCC(c3ccn[nH]3)C2)cn1 (stereo unspecified),12.18,-18.02
[H][C@@]12CCN(S(=O)(=O)C3CC3)C[C@@]1([H])O[C@H](c1ccnc(C)n1)C2,3.061,15.45
[H][C@]12CC[C@]([H])(CN(Cc3ccncc3)C1)N(C(=O)CCOCC)C2,8.628,-39.9
CNC(=O)c1ccc(-c2ccc(CNS(=O)(=O)N(C)C)cc2)nc1C,8.879,-0.4507
CN(C)c1ccccc1C(=O)N1C[C@@H](CN2CCCCC2)[C@@H](CO)C1,30.53,-4.35
CC(c1cccnc1)N1CCN(C(=O)NCc2cnn(C)c2)CC1 (stereo unspecified),19.47,0
CCc1n[nH]c(C(=O)N2CCCC3(CN(C)C(=O)O3)C2)c1C (stereo unspecified),24.6,0.5596
CC(C)(C)c1nc(CN2CCCC(Cn3cncn3)C2)cs1 (stereo unspecified),20.41,-3.159
CN(CCO)C[C@@H]1CN(C(=O)c2c(F)cccc2Cl)C[C@@H]1CO,27.13,8.562
CC(C)N1CCCCC1c1cc(CO)[nH]n1 (stereo unspecified),32.47,-11.54
Cc1ccc(S(=O)(=O)NC[C@H]2OC[C@@H](NCc3cccnc3)[C@@H]2O)cc1,7.857,10.7
Cc1oncc1C(=O)N1CCC2(C1)CN(c1cccnc1)C(=O)CN2C (stereo unspecified),17.38,-0.7479
[H][C@@]12CN(C)C(=O)N1CCN(C(=O)c1ccc3c(c1)OCO3)C2,15.81,-1.725
Cc1cc(C)n(C2CCCN(C(=O)c3c(C)c(C)n[nH]c3=O)C2)n1 (stereo unspecified),-16.1,9.314
O=C(N1CCCC1)N1CCC[C@]2(C[C@@H](Oc3ncccc3F)CO2)C1.O=C(O)C(F)(F)F,-32.9,-3.624
Cc1nc2ccccc2nc1CN(C)C1CCCN(c2cccnn2)C1 (stereo unspecified),3.425,-0.9265
CCn1cc(-c2nn3c(C(F)(F)F)nnc3s2)cn1,-42.29,-28.91
Cn1nccc1C(=O)NC(C)(C)c1noc(C(C)(C)C)n1,42.5,-3.55
COCc1nc2nc(O)c3c(n2n1)NC(=O)CC3c1ccc(SC)cc1 (stereo unspecified),26.31,17.41
Cc1nnc(NC(=O)NC2CCOc3ccccc32)s1 (stereo unspecified),27.6,15.91
CCc1noc(CN2CCN(C(=O)N(C)C)CC2)n1,-5.336,-
Cc1cc(NCCCC(F)(F)F)n2nc(C)cc2n1,-25.88,8.015
CN1CC(C(=O)NCCc2ccc3c(c2)OCCO3)CC1=O (stereo unspecified),20.3,-6.995
CS(=O)(=O)NCC(=O)N[C@H]1CN(CC2CC2)C[C@@H]1c1ccccc1,16.86,-10.45
CC(C)OCCC(=O)NCCC(=O)N1CCN(c2ccccn2)CC1,46.97,-0.6653
Cn1cnnc1SCc1cc2c(cc1Cl)OCO2,45.7,-
COCCCC1CCCCN1Cc1cnn(C)c1C1CC1 (stereo unspecified),5.355,-7.669
COC(=O)C(C)(C)NC(=O)c1scnc1Cl,16.22,-4.019
Cc1nc(C)n(CC2CCCN(Cc3ccc(C(N)=O)cc3)C2)n1 (stereo unspecified),-3.523,1.24
Cc1ccc(NC2CCN(C(=O)c3cccc4[nH]ncc34)CC2)nn1,16.62,-25.21
Cc1cccc(N2CCC3(CCCN(C(=O)c4cccnc4)C3)C2)n1.O=C(O)C(F)(F)F.O=C(O)C(F)(F)F (stereo unspecified),10.58,3.163
Cl.FC(F)(F)c1nc(C2CCNCC2)no1,-50.5,-16.65
CN(C)Cc1cc(=O)n2c(n1)CN(C(=O)c1ccc[nH]1)CCC2.O=C(O)C(F)(F)F,28.33,-10.95
CC(C)c1ncc(CN2CCC(c3n[nH]cc3C(=O)N(C)C)C2)cn1 (stereo unspecified),20.47,-
O=C(COCC(F)(F)F)NC1CCCc2cc(OC(F)F)ccc21 (stereo unspecified),16.75,-0.4225
COc1cccc(C(CO)NC(=O)Cc2cccc(C)c2)c1 (stereo unspecified),-12.32,-2.806
CNC(=O)Cc1cc2nccc(-c3c(OC)cccc3OC)n2n1,-0.1548 & 11.67,-18.63
CCc1nccn1CCCn1ccnc1-c1[nH]cnc1C,-8.266,6.799
Cc1ccc2oc(CNC(C)c3nnc4n3CCCC4)cc2c1 (stereo unspecified),-9.863,-14.73
CC(C)N1CCC(Cc2cc(-c3cccc(C(=O)O)c3)ncn2)CC1,15.47 & 2.555,-9.778
CCN(CC)C(=O)c1nnsc1-c1ccc(Cl)cc1,35.67,-0.9278
COc1ccccc1CN(Cc1cccc(C)c1)C(=O)[C@@H](N)CC(=O)O,13.42,1.864
[H][C@@]12CCN(S(C)(=O)=O)C[C@]1(c1nnc(C)o1)CCO2,-7.004,6.691
[H][C@]12CC[C@]([H])(CN(C(=O)CC(F)(F)F)C1)N(Cc1ccccc1)C2=O,35.76,0.2899
O=C(O)C(F)(F)F.O=C(O)C(F)(F)F.[H][C@@]12COC[C@]1(CN1CCOCC1)CN(Cc1cccc(OC)c1)C2,24.96,11.35
Cc1cc(N2C[C@H](C3CC3)[C@@H](N)C2)nc(N2CCCCC2)n1,55.81,-3.79
Cl.O=C(N1CCCC1)C1(Cc2ccc(-c3cccs3)cc2)CCNC1 (stereo unspecified),86.38,14.08
CC(C)N(C)S(=O)(=O)N(Cc1cccs1)CC1CCCO1 (stereo unspecified),-50.49,-11.63
CN(C)[C@@H]1CCN(S(=O)(=O)C2CC2)[C@H]1Cc1ccccc1.O=C(O)C(F)(F)F,-1.088,2.65
O=C(C1CCOCC1)N1CCC2(CCN(Cc3nccs3)CC2)CC1.O=C(O)C(F)(F)F,18.21,-7
Br.Cc1ccc(C(=O)CN(C2=NCCCCC2)c2ccccc2)cc1,20.01 & 14.73,3.664
O=C(O)CCc1cc2n(n1)CCN(Cc1cnc(N3CCCC3)nc1)C2,-11.23,-3.163
Cc1cc(=O)[nH]c(SC(C)C(=O)N2CCC(c3ncc[nH]3)CC2)n1 (stereo unspecified),12.89,14.99

The first 4 entries again:

| SMILES | A | B |
|---|---|---|
| `CSCc1noc(-c2ccc(C)c(N3CCNC3=O)c2)n1` | 12.14 | -8.846 |
| `COCC(=O)Nc1cnc(N2CCOCC2)nc1` | 22.96 | -2.839 |
| `COc1ccc(CNC(=O)NCCc2nc(C)c(C)s2)cn1` | 17.17 | 3.294 |
| `Cc1nn(C)c(N(C)C)c1CNCCCNS(C)(=O)=O` | -12.57 | -3.365 |

From ChEMBL document CHEMBL3988442, “University of Dundee, Small-Polar-MMV Screening Library” (2021).